Among the data in PubChem BioAssay AID1508600 (Functional Genomics Laboratory (NCATS/FGL), 2020) are z-score values, retold here.

Out of some 53,000 sequences screened, about 3,700 (7%) were called active.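 The calls were made as follows: active = gene knockdowns whose robust z-score for IL-1 alpha signal is at least 2 or at most -2, so actives lie on both sides; inactive = the rest.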 This is one part of the list.

This test in a line: Components of the Cytosolic LPS Sensing Pathway: Gene Identification via Genome-wide siRNA Screen.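 Also: robust z of the log signal after scaling to non-targeting control siRNA wells of the plate.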 To be noted: RAW264.7 macrophages, IL-1a HTRF, actives lie on both sides, screened at 100 nM (by protocol), cells primed 5 h with Pam3CSK4 first. A digest of the protocol:
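IL-1a HTRF of supernatants after 24 hour LipidA transfection of Pam3CSK4-primed (5 hours) RAW264.7 cells, 48h post-siRNA transfection (100 nM). Scores: percent of plate negative-control median, then log-based robust z-score.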
On to GGCAUUGUGAAGCUGAAACTT against Ptpn9, for which the z-score was inactive: 0.11.

In the case of GGUUUCUGGCUUUCCGUAGTT against Erf, the z-score was inactive: -0.0549.

With GGUCCUUACCAUCAAUCCUTT against Pgls, the z-score was inactive: 0.0794.

For GGAAAUGGACAUUGUAUUCTT against Serpina3k, the z-score was inactive: -1.11.

On to CGUGGAAGUAAACUCCCUUTT against Zfp112, for which the z-score is inactive: 0.342.

In the case of GCAAAUGUUCGGUAAUUUGTT against Parp9, the z-score was inactive: -0.212.

As for GCACAAGGAUUCUCGCUGUTT against Ext1, the z-score is inactive: 1.69.

As for GGUGUUUGACCCUUCUUGCTT against Pqbp1, the z-score is inactive: 1.64.

For CCUGUUUAUAAGUCAGAGATT against Zzz3, the z-score is inactive: 1.5.

Turning to CGGAAAGACGAUGCUCAAUTT against Lztr1, the z-score was inactive: -0.993.

As for GGAGCAUUCACAUACUUACTT against Olfr944, the z-score is inactive: 0.165.

As for CCAGGUUGAUGAUUUCAACTT against Tbcc, the z-score was inactive: -1.43.

On to GGAAGCUGGUUCCUGUUUUTT against Hrk, for which the z-score is inactive: -0.194.

GAUUCUUGAGGAAUUUAGCTT against Syncrip: the z-score is inactive: 1.21.

As for GCCACGAUUGUUGUCAUGCTT against Rab25, the z-score is inactive: 0.213.

In the case of GGAGAAGAGAAUAGAAGAATT against Ren1, the z-score is inactive: -0.0528.

Regarding GGAAAUGAUGUGUUUCAGUTT against Fmo5, the z-score is inactive: 0.552.

Consider GGUAACCAUGAUGAUGACATT against Tmem38b, for which the z-score was active: -2.05.

As to UCAUCUUACUCACAGUCUCTT against Tas2r118, the z-score is inactive: -1.62.

With GGAGCAAAGUGAUAAUUAUTT against Pcdhga8, the z-score was inactive: 0.639.

Regarding GUUUUUAGGUUGAGAAACUTT against Vmn1r219, the z-score was inactive: 0.00542.

For the sequence GGACAACCAAGGAAGAAACTT against Fam205c, the z-score was inactive: 0.816.

For the sequence CCCAUCAUCUUCCCAUUCGTT against Olfr146, the z-score is inactive: -0.204.

Turning to GGGACUGGACCCAUACAAUTT against Cox5b, the z-score was active: 4.27.

As for GGACAGAAAAACCUUCUAATT against Hexb, the z-score is inactive: -0.567.

On to GGCCACUGGGUUUUUCCUGTT against Golt1b, for which the z-score was inactive: 0.751.

As to GGAGAUGAUUUUGAACUUCTT against Retreg3, the z-score is active: 2.73.

Take GGAUUGACAGUGUCAGUCUTT against Gnal: the z-score was inactive: -0.408.

GGAAGUGAUGUACUUCCAATT against Qpctl: the z-score is inactive: 0.327.

Take GGUAUACCAAGAAGCUAAGTT against Kctd14: the z-score was inactive: -0.855.

In the case of GGAAAAUGGUUGGUACUUUTT against Vwc2, the z-score is inactive: 0.219.

As to GGUUUUCCUGUUAUUUUCUTT against Mapre2, the z-score was inactive: 0.462.

On to GCCCUUCGAAUGUGUAAGGTT against Vwa5b2, for which the z-score was inactive: -0.446.

For the sequence “GGUUUUACCCUGUAAUACUTT against 1700012B09Rik”, the z-score is inactive: 0.242.

Turning to GGUACUGAUCAUGGAAUAUTT against Hibch, the z-score is inactive: -1.97.

GGAGAUACAAUGUGAAAAGTT against Odf2: the z-score is inactive: 0.418.

In the case of GGGUUGCUAAUGGAGAUGGTT against Slc12a1, the z-score is inactive: -1.03.

As to GGCUCCACCGACUUUGUCUTT against Pprc1, the z-score is inactive: -0.792.

Consider GGAUGAACUUUCCUAAGUUTT against Lrrc8b, for which the z-score was inactive: -0.0863.

With CCCUAUUGUCAAUAUUCUATT against Nr1h5, the z-score is inactive: 0.492.

For GCACUUCGGAUGGUUCGAGTT against Elovl1, the z-score was inactive: -0.404.

Consider GCAUGUUUACCUCAAAGUGTT against Cd209e, for which the z-score is inactive: 0.843.

Regarding CGCAUUGGUAGCUUGGAUATT against Nmbr, the z-score is inactive: -0.192.

As for GCAAGUGCGGAAGAAAGGATT against Afap1l2, the z-score is inactive: 0.0285.

GGAAAGAGUGUGCAAACUCTT against Ly6d: the z-score was inactive: 0.0731.

Consider GCUAAGGAUUAGAAGGAAATT against Psme2, for which the z-score is inactive: -0.997.

Take GGACUUUGACAGCUUAGGATT against Acot10: the z-score was inactive: -0.446.

As for GGCCAGUCAAUUCUUGCUUTT against Itpripl2, the z-score was inactive: 0.355.

Consider GGUGAAGACGUGGUAUCAATT against Barx1, for which the z-score is inactive: -1.06.

In the case of GGCUCAUGGUUAUUGUAAUTT against Olfr1198, the z-score was inactive: -0.385.

As for GGGAAGAUUGAUUUUAUCGTT against Abcb11, the z-score was active: 2.31.

With GGCUUGAAUAUUAAAGUGATT against Arhgef19, the z-score is inactive: -0.505.

In the case of GGAAAUGAUACAUUUGUGATT against Mre11a, the z-score is inactive: -0.256.

As to “GGUAAUAAACAGACAUAGATT against 2410141K09Rik”, the z-score is inactive: 1.2.

As for GGUGAAAUAUGAGGAGUUUTT against Calm4, the z-score was inactive: -0.079.

Regarding CCUCGAUAUGAGUUUUUGATT against Mrfap1, the z-score is inactive: -0.288.

In the case of GCUAUAUCGCUAUGGACACTT against Cnot8, the z-score is inactive: 0.954.

For the sequence GCAUCUUUGUGAAUGUUUATT against Slc7a3, the z-score is inactive: -0.462.

For GGAUCUGCUGAAUAAGUGCTT against Fam216a, the z-score is inactive: -1.43.

On to GGCCAGGAGAUUCCUAUGATT against Shisa4, for which the z-score is inactive: -0.304.

Consider GGCAGCAAGUUUUUUAAUCTT against Cap1, for which the z-score was inactive: 0.464.

Take GCCACUCUAUGUGAACACATT against Hmgxb4: the z-score was inactive: -0.648.

GGUUCAAUAAAAAUGCUUCTT against Ngp: the z-score is inactive: 1.37.

Take GGAAAAUUGGCCAAAAUAATT against Pdcl: the z-score was inactive: -0.0308.

For the sequence GGACGUGCUACAUUUGAAATT against Zfp870, the z-score was inactive: -0.961.

Turning to CCCUUUAUGAUAGGUUUUATT against Vmn1r85, the z-score was inactive: 1.79.

Turning to GCAAGAUUCAGAGUGCAGCTT against Txlng, the z-score was inactive: -1.09.

With GCAACGGAGCGGAAAAGAATT against Kif26b, the z-score is inactive: -1.2.

Take CGCAAGAUCCUCAAACGAGTT against Proc: the z-score is inactive: -0.358.

As to GGCUCUCUGAGGAAUCUAGTT against Slc66a2, the z-score was inactive: -0.413.

For CGGACCAUUAUGAGUCAUUTT against Mtln, the z-score is inactive: 0.734.

Regarding GGUCAUGGAUUGCUUUUUATT against Dus1l, the z-score was inactive: -0.251.

As to GGGCAUCUUCUACCUGACCTT against Zdhhc9, the z-score was inactive: -0.59.

With “GGGCCUGUAAUGGUGUACATT against B230317F23Rik”, the z-score was active: 2.56.

On to GGUUUCUUUUAAGCAUCAUTT against Olfr862, for which the z-score is inactive: -0.611.

GGGUGAAUCAUUCUGUGACTT against Olfr1313: the z-score was inactive: 0.531.

Turning to GGCAAAGAACAUCAAGCAATT against Sgsm3, the z-score was inactive: -0.495.

Turning to GGACAUGCUUUUAUAGAUGTT against H2aw, the z-score is inactive: 0.994.

For GGCCAAAAUCGGGCAAGAATT against Nat9, the z-score is inactive: -0.813.

For the sequence CGAAGAGAGCUGCAUUAAATT against BC049715, the z-score is inactive: -1.37.

For the sequence GGUGCUCUUUUCAGAAAAATT against Hacd1, the z-score is inactive: 0.65.

On to GUCAAAGAGUUUCAGCAUCTT against Foxl1, for which the z-score is inactive: 0.664.

On to GCAUUCACCGUACGUAUUCTT against Id4, for which the z-score is inactive: 0.187.

As for GGUUCAUCAUUUGGAAACATT against Msh4, the z-score was inactive: -1.43.

In the case of GGGUCCCGGUUUAAAGCUUTT against Ankle2, the z-score was inactive: -0.892.

In the case of CGAGGAUUUCUGUUACUUATT against Lyst, the z-score was inactive: 1.19.

On to GCCAUUCGUUCUACGAAACTT against Fam3c, for which the z-score was inactive: 0.114.

Turning to GGGAGUUUCAGACCAGUGUTT against Atp5g3, the z-score was inactive: -0.097.

For the sequence GGAAAAGGCCGAUUUCGUGTT against Dixdc1, the z-score is inactive: 0.556.

Turning to GGUGAGAACGAGAUGGUGATT against Txnip, the z-score was inactive: -0.057.

In the case of CGUGUUUCACAAGAGCAUATT against Svs2, the z-score was inactive: -0.472.

In the case of GGUGAUUUUAUGACAGGAATT against Cbx6, the z-score was inactive: -0.814.

As for GCAAGGAUCCACGCUUUUCTT against Ckmt2, the z-score was inactive: 1.34.

For GGAAAAGCUCAAUGUCCUCTT against Tex13b, the z-score is inactive: -0.141.

Regarding GCAAGAGUACAUCAAUGAUTT against Wdr75, the z-score is inactive: 1.1.

With CGGAUUAAACAUAGUAACUTT against Prss58, the z-score was inactive: -0.0341.

On to GGCACAAGACAGUUUGGCATT against Lonrf3, for which the z-score was inactive: 0.0474.

Consider GGAGGAUUCCAAAGUCCGATT against Sp5, for which the z-score was inactive: 0.4.

Regarding GCCGUGGCCUAAUAAACGUTT against Nosip, the z-score was inactive: 0.0316.

With CCCGAAUCUCAGCGUAGAATT against Gm5617, the z-score was inactive: -0.853.

Turning to GGGCACUGGAACAGAUUUUTT against Ccnh, the z-score is active: 4.27.

Consider GCAUUUUAUGCACUCUGUCTT against Camk4, for which the z-score is inactive: -1.19.

With GCCAGUCUUAAAUGAUCAATT against Evi2b, the z-score is inactive: 0.25.

With GGAUCUUGGAUGAGCUGACTT against Krt31, the z-score was inactive: -0.76.

Consider GGCCUAAUUAGUUACUUCUTT against Zfp446, for which the z-score was inactive: -0.0114.

As to GGAAUGGAGUCUCCAAAGUTT against Mgl2, the z-score was inactive: 0.788.

On to GGGUACUGAGGCACUAAAGTT against Mzt1, for which the z-score was inactive: 1.09.
